This data set concerns rat NAFLD model. Kind of data set: 12-week choline deficient high fat diet rat study (NAFLD model). Type of data set: in vivo. The note with it: 7 or 12 week period. The source says: NAFLD is diagnosed in the US as 3 million new cases each year. NASH is included in the NAFLD diagnosis, as it is the easiest to ascertain in a subject. NAFLD activity score (NAS) is scored as 0-2 not diagnostic, 3-4 ranges from not diagnostic/borderline/positive NASH, and 5-8 diagnostic of NASH; the NAS scoring system includes a composite of […] semi-quantitative features: steatosis (0-3), lobular inflammation (0-2), hepatocellular ballooning (0-2), and fibrosis (0-4). To analyze the effect of compound I-1 on NAFLD, NAS was analyzed in rats treated with vehicle or various doses of compound I-1 (100 mg/kg, 125 mg/kg was compared to escalation 30/60/100 mg/kg and 50/75/100 mg/kg BID, respectively in animals fed a choline deficient, high fat diet for 7 weeks (vehicle vs. 100 mg/kg vs 30/60/100 mg/kg) and 12 weeks (vehicle vs. 125 mg/kg vs 50/75/100 mg/kg). Plasma was collected at 1, 2, 3, 6, 8, 10, and 12 weeks and tested for cytokines and ALT, AST, Triglycerides, Cholesterol, and tBilirubin (measures of liver function). At 12 weeks the livers were collected and gene expression studies, immunohistochemistry, and hydroxyproline.

Molecules are shown by their SMILES.

For `CC(C)(O)c1nc2ccccc2cc1N` [I-1], the food intake entry is “did not change” and the weight gain entry is “did not change”.
